# Library screen at single concentrations

Amino acid sequences for entries named in this document (tags omitted). Residues count along the entry.
UniProt A4I591, 1-473: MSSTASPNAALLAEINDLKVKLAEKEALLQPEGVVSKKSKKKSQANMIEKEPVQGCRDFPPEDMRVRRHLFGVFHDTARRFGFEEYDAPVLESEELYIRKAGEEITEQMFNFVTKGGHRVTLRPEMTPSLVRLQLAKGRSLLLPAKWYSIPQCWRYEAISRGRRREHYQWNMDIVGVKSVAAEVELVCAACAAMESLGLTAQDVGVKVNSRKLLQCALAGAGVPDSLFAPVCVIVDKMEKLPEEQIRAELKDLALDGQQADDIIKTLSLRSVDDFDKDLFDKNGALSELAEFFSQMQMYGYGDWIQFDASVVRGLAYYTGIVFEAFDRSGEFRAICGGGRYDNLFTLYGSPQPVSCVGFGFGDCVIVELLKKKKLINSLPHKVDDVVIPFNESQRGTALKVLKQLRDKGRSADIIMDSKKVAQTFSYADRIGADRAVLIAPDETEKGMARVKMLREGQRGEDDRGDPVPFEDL
UniProt P9WPC5, whole entry: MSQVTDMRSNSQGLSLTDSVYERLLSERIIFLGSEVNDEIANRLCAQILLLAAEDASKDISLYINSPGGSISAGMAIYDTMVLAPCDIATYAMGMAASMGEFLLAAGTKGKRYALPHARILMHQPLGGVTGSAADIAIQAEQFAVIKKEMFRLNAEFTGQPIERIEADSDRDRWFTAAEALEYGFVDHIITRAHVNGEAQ
UniProt P9WPC3, whole entry partner: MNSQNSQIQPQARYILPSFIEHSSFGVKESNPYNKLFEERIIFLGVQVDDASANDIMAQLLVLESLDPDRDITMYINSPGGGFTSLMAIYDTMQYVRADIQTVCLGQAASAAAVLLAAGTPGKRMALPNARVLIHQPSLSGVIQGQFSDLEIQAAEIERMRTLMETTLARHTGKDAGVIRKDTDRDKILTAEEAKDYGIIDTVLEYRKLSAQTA

Measurements from “University of Dundee, Small-Polar-MMV Screening Library” (2021), ChEMBL document CHEMBL3988442.

The filed quantity is “Percent Effect” (%). The record does not define 0% and 100%; most values in the screen are far below 50% and negative numbers occur (in some assays of this library far below -100). This is an unselected part of the compounds tested. A dash means the value is not listed here; it may have been measured.

LiHisRS: 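Histidine-tRNA ligase, Leishmania infantum (UniProt A4I591). Enzyme assay of histidyl-tRNA synthetase; the read-out is not stated. Tested at 30 µM. The record gives no direction; compounds that gave an IC50 in retests scored well above the rest, so higher reads as stronger inhibition. The assay is labelled LdHisRS but filed under L. infantum. Of about 69,000 compounds tested this way, about 410 (0.6%) reached 50% or more in at least one test.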
Toxoplasma: 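Assay of Toxoplasma gondii numbers, read through their beta-galactosidase reporter with a colour substrate. Compounds at 10 µM. Higher reads as fewer parasites (inferred from which compounds were picked for retests). Size under these conditions: about 67,000 compounds, about 260 of them at 50% or above in at least one test.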
ClpP1P2: 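ClpP1P2, Mycobacterium tuberculosis (UniProt P9WPC5 and UniProt P9WPC3). Protease assay of ClpP1P2, read by the AMC dye that it sets free. Tested at 50 µM. Higher reads as stronger inhibition, judged from the few compounds that gave an IC50. Most other retested compounds had strongly negative values. Size under these conditions: about 69,000 compounds, about 10 of them at 50% or above in at least one test.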
T. brucei: 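Whole-parasite assay of Trypanosoma brucei over 72 hours; the read-out is not stated. Tested at 30 µM. Higher reads as stronger inhibition (inferred: compounds with an IC50 in retests scored well above the rest). Values scatter widely below zero; nearly all retest evidence comes from the higher of the two concentrations used. About 64,000 compounds were tested under these conditions; 1.5% (about 940) showed 50% or more at least once.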
Leishmania in macrophages: 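Cell assay of Leishmania donovani living inside macrophages; the read-out is not stated. Concentration: 30 µM. Direction is inferred from retests: higher values go with stronger inhibition. Of about 69,000 compounds tested this way, about 1,000 (1.5%) reached 50% or more in at least one test.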

| structure | LiHisRS | Toxoplasma | ClpP1P2 | T. brucei | Leishmania in macrophages |
|---|---|---|---|---|---|
| `CC(C)NC(=O)[C@@H]1CN(C(=O)C2CC2)C[C@]12Cc1ccccc1C(=O)N2` | 11.27% | 7.878% | -6.927% | 8.349% | 6.496% |
| `CC(Oc1cccc(Cl)c1)C(=O)Nc1cnn(CCN(C)C)c1` (centres unmarked) | 17.05% | 2.838% | -12.92% | -8.674% | -24.3% |
| `[H][C@@]12C[C@H](C(=O)NCc3ccco3)CN(S(=O)(=O)C3CC3)[C@]1([H])CCO2` | - | 2.244% | - | 3.905% | 7.248% |
| `CC(=O)NCC(=O)N1CCCC(C(=O)c2ccc(C(C)(C)C)cc2)C1` (centres unmarked) | 10.62% | -18.21% | -19.97% | -72.68% | 16.87% |
| `O=C1CC(N2CCN(c3ccc(O)cc3)CC2)C(=O)N1Cc1cccs1` (centres unmarked) | 35.63% | -22.93% | -6.486% | -18.18% | 23.62% |
| `Cc1ccc(N2CCC(c3cc(Cc4ccccc4)n[nH]3)CC2)nn1` | 19.47% | -17.95% | -18.35% | -45.15% | 15.09% |
| `CCOC[C@H]1CC[C@H]2[C@H](CCN2Cc2c(C)noc2C)O1` | 30.56% | - | -13.21% | - | - |
| `Cc1ccc(N2CCOCC3(CCCN(c4ncc(F)cn4)C3)C2)nn1` (centres unmarked) | 13.83% | -6% | 0.8816% | -34.94% | 30.25% |
| `CSc1c[nH]nc1NS(=O)(=O)c1cc(F)ccc1Cl` | 7.463% | -0.575% | -5.133% | -3.876% | 9.637% |
| `CCCNCc1ncc(C)c(OC)c1C` | 12.07% | 2.896% | 1.651% | -9.09% | 44.02% |
| `Cn1ccnc1CN1CCC(F)(F)C2(CCN(c3cnccn3)C2)C1` (centres unmarked) | -1.37% | - | -7.055% | - | - |
| `Cc1nc(CN2CCCCC2CCc2ccc(O)cc2)co1` (centres unmarked) | 6.195% | 0.0575% | 5.203% | 15.07% | 13.61% |
| `Cc1cc(-c2ccc(=O)n(C3CCN(C(=O)C4CCC4)CC3)n2)c(C)o1` | 9.859% | - | 13.65% | - | 10.44% |
| `Cc1ccc(S(=O)(=O)N2C[C@H]3C[C@H](NC(=O)c4ccccn4)[C@H]3C2)cc1` | 22% | - | 2.141% | - | - |
| `CS(=O)(=O)NC(=O)c1ccn(-c2cccc(Br)c2)n1` | 14.16% | -25.85% | -2.087% | -85.67% | -4.702% |
| `Cc1nccc(-c2ccccc2)c1C(=O)N1CCC2(CN(C)C(=O)O2)C1` (centres unmarked) | 12.68% | 6.323% | 5.05% | -34.97% | 23.3% |
| `O=C(O)C(F)(F)F.O=C(O)C(F)(F)F.c1cnc(N2CCC3(COCCN(CC4CCOCC4)C3)C2)nc1` (centres unmarked) | - | 0.0575% | - | 8.577% | 13.64% |
| `Cc1cc(NCc2nnc3n2CCCCC3)n2nc(C)c(C)c2n1` | 16.67% | -10.16% | -9.465% | -1.693% | -0.6663% |
| `CNCc1ccc([C@@H]2CN(C)C[C@H]2C(N)=O)cc1` | 8.633% | - | 13.44% | - | - |
| `CCN1CCCC12CCN(Cc1cccnc1OC)CC2.O=C(O)C(F)(F)F.O=C(O)C(F)(F)F` | - | -0.5933% | - | -48.67% | 8.08% |
| `COc1ccccc1OC1CCN(c2ccncc2)CC1` | 3.448% | 11.4% | 23.45% | -8.244% | 2.91% |
| `Br.COc1ccc(OCCc2cc(C3CCN(CC(C)C)C3)n[nH]2)cc1` (centres unmarked) | - | -9.997% | - | 20.63% | 17.1% |
| `COCCN1C(=O)CCC12CCCN(Cc1ccccc1F)C2.O=C(O)C(F)(F)F.O=C(O)C(F)(F)F` (centres unmarked) | - | -11.6% | - | -13.22% | 2.646% |
| `O=C1CO[C@@H]2CNC[C@H]2N1CC1CC1` | 6% | - | -7.48% | - | - |
| `Cn1cc(C(=O)N2CCCCC2CCc2ccc(O)cc2)cn1` (centres unmarked) | 5.479% | 13.86% | 1.98% | -14.11% | 29.07% |
| `COCCN1CCC2(CC1)CN(C(C)=O)c1ccc(C)cc12` | 2.632% | - | 16.09% | - | - |
| `O=C(N1CCOCC1)N1CCN(CC(O)c2ccc(F)cc2)CC1` (centres unmarked) | 3.636% | 5.073% | -8.051% | 1.866% | -17.39% |
| `O=C(N[C@H]1CN2CCC1CC2)c1cc(Cn2cnc3ccccc32)[nH]n1` | 19.61% | 2.797% | -4.738% | -53.57% | 1.885% |
| `COc1ncccc1NC(=O)N1CCC(CNC(C)=O)CC1` | 20.39% | 1.211% | 1.497% | 13.25% | 31.87% |
| `Cc1cnc(N2CCc3onc(COc4cccnc4)c3C2)nc1` | -0.9091% | -37.95% | -11.13% | -71.77% | 77.52% |
| `Cc1nc(C)c2c(n1)CCN(C(=O)CC1CC1)CC2` | 10.53% | -1.99% | -0.921% | - | -27.24% |
| `CN(CC(=O)Nc1ccncc1)CC1CCCN1c1cccnn1` (centres unmarked) | 4.464% | -30.6% | -13.16% | -26.87% | 4.209% |
| `Cn1cc(C(=O)NCCc2ccc(OC3CCCC3)cc2)ccc1=O` | 5.181% | 7.458% | 3.471% | -15.6% | 9.695% |
| `CC(Nc1cccc2c1OCCO2)C(=O)Nc1ccc(S(N)(=O)=O)cc1` (centres unmarked) | 2.655% | 5.712% | -6.964% | -35.46% | 15.83% |
| `N#Cc1ccc(NC(=O)C2CSCN2)cc1` (centres unmarked) | 9.89% | - | -3.744% | - | - |
| `Cc1noc(C)c1C(=O)N1Cc2ncn(C)c2C(COCC2CC2)C1.O=C(O)C(F)(F)F` (centres unmarked) | - | -3.682% | - | -79.37% | 35.75% |
| `CCc1nnc(Nc2cccc(C3CCN(C)CC3)n2)s1` | 4% | 45.46% | 17.58% | -38.78% | -22.97% |

For reference, 3 entries once more:

{"structure": "N#Cc1ccc(NC(=O)C2CSCN2)cc1", "stereo": "centres unmarked", "LiHisRS": 9.89, "ClpP1P2": -3.744}
{"structure": "CC(Nc1cccc2c1OCCO2)C(=O)Nc1ccc(S(N)(=O)=O)cc1", "stereo": "centres unmarked", "LiHisRS": 2.655, "Toxoplasma": 5.712, "ClpP1P2": -6.964, "T. brucei": -35.46, "Leishmania in macrophages": 15.83}
{"structure": "CCc1nnc(Nc2cccc(C3CCN(C)CC3)n2)s1", "LiHisRS": 4, "Toxoplasma": 45.46, "ClpP1P2": 17.58, "T. brucei": -38.78, "Leishmania in macrophages": -22.97}